The name of at least one read-out is uncertain.
Target: Lectin Pathway
Assay: Lectin pathway activation assay in human serum (mannan-coated ELISA, C3c detection)
Assay type: biochemical
Settings: column head says Ki, legend defines IC50

SMILES: N=C(N)c1ccc(CNC(=O)Cn2c(=O)n(Cc3ccccc3)c(=O)c3ccc(C(=O)NC4CCCCC4)cc32)cc1 [compound 2021, 3-Benzyl-1-(2-((4-carbamimidoylbenzyl)amino)-2-oxoethyl)-N-cyclohexyl-2,4-dioxo-1,2,3,4-tetrahydroquinazoline-7-carboxamide]
- Ki: 5 to 50 µM
